Residue numbers refer to the chain shown, from its start. For at least one entry, the source does not settle the construct or the ends of the probe. Protein sequences can lack the tags named with them.

What all share (experiment): activity assay
Data set [1] deals with T1, Kofu DNA polymerase (KOD/Pfu chimera) (UniProt P56689).
T1 sequence (limits assumed): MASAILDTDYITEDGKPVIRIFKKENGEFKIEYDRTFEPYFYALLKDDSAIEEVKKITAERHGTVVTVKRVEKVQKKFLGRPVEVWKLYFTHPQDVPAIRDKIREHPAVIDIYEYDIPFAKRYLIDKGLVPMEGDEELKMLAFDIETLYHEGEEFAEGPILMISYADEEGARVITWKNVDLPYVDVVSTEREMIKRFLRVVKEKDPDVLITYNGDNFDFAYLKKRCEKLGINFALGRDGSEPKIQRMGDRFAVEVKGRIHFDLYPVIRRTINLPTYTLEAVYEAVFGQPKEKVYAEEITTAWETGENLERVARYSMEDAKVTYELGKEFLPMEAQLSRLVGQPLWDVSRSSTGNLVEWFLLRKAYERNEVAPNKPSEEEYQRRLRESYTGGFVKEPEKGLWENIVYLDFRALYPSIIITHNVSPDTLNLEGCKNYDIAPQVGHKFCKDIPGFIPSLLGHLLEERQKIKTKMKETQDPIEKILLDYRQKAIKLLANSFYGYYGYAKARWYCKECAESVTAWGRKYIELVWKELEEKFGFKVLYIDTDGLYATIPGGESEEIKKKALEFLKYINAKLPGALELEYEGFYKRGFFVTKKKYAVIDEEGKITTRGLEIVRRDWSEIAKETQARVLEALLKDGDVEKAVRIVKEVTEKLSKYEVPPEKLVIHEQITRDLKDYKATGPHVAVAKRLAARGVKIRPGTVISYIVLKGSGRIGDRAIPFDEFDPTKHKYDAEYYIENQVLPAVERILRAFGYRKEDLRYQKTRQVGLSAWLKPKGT
The settings on record: M13 primer extension, 2.5 mM MgCl2, 50 C, SYBR Green; reference; heparin elution 37 mS/cm; purified recombinant protein.

Data set [2] concerns T2, Kofu clone 11/5Hi-E5 F591L,F445I,K561E,K653R (Artificial (KOD/Pfu chimera)).
T2 sequence (limits assumed): T1 sequence (limits assumed) with F445I, K561E, F591L, K653R
The settings on record: M13 primer extension, 2.5 mM MgCl2, 50 C; heparin elution 40.8 mS/cm; purified recombinant protein.

In data set [3] the test system is T3, Kofu clone 10/7-D4 F591L,K447E,K563T,K606E,E621G (Artificial (KOD/Pfu chimera)).
T3 sequence (limits assumed): T1 sequence (limits assumed) with K447E, K563T, F591L, K606E, E621G
The settings on record: M13 primer extension, 2.5 mM MgCl2, 50 C; heparin elution 39.3 mS/cm; purified recombinant protein.

As for “AACGCCAGGGTTTTCCCAGTCACGACGTTGTAAAACGACG”, in data set [1], the activity on this sequence (relative to Kofu) worked out at 1. In addition, the activity on this sequence was 4 fold vs Kofu in data set [2] and 7 fold vs Kofu in data set [3].

The values are drawn from patent US20110269211.
